From the supplement of paper PMC12823440, “Inhibitors supercharge kinase turnover through native proteolytic circuits” (Nature, 2025)
Where a name gives a salt, the structure may show the parent alone. This is one part of the list. Hit calls seldom repeat between salt and free forms of one compound.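 Kinases were expressed as nanoluciferase fusions in K562 cells and luminescence was read every 4 h between 2 and 18 h as percent of control, DMSO set to 100% and a positive control to 0%. A time point counts as decreased when the signal drops significantly (2 sigma). The hit call is the authors' own, does not follow from the count of time points alone, and its rule is not shown.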

Protein sequences, listed by entry. Tags and fused reporters are not part of them. Lines headed by an entry give the natural chain unless they say otherwise; changes in a name come on top.
UniProt P50613: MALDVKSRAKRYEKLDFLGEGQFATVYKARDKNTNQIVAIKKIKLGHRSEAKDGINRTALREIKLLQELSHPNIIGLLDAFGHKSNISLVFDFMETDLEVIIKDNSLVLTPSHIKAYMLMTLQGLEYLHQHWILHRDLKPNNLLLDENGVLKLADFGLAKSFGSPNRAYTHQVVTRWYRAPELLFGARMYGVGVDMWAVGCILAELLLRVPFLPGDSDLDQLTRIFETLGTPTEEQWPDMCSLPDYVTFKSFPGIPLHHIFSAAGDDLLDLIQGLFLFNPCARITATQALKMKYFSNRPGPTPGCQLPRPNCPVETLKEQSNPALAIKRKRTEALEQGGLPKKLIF
UniProt P50750, whole entry: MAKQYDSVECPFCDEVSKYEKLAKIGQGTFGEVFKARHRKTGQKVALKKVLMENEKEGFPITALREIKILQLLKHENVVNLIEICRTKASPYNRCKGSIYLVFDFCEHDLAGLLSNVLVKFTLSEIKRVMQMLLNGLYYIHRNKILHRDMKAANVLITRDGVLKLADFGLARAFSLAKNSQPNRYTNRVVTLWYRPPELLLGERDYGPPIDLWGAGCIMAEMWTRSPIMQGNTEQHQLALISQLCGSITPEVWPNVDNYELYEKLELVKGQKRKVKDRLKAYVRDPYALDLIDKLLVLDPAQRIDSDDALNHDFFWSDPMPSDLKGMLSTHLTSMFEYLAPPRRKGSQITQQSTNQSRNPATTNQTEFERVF
UniProt O96017, whole entry: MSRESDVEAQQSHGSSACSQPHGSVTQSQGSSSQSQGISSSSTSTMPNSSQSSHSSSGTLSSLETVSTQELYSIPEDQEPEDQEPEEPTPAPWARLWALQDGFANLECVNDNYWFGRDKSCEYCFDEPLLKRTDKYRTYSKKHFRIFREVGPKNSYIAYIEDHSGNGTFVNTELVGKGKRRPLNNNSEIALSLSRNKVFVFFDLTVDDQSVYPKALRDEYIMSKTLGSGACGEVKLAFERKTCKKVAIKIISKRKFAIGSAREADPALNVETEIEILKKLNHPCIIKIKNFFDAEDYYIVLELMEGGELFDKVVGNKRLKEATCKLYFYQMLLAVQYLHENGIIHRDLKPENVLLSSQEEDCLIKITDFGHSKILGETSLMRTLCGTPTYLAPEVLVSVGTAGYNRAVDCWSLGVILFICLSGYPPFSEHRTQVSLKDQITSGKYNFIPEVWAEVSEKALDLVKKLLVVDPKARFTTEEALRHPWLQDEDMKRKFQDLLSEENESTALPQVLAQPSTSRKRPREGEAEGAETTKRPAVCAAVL
UniProt P48729: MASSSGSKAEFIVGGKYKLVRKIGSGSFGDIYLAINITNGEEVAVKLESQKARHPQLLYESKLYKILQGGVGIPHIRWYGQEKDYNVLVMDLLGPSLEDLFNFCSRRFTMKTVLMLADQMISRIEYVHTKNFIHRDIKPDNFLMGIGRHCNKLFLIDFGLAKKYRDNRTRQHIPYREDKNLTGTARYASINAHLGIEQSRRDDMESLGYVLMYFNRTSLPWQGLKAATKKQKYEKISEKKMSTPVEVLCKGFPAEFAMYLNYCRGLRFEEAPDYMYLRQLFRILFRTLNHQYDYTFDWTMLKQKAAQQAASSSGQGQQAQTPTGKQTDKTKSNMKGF
UniProt P48730: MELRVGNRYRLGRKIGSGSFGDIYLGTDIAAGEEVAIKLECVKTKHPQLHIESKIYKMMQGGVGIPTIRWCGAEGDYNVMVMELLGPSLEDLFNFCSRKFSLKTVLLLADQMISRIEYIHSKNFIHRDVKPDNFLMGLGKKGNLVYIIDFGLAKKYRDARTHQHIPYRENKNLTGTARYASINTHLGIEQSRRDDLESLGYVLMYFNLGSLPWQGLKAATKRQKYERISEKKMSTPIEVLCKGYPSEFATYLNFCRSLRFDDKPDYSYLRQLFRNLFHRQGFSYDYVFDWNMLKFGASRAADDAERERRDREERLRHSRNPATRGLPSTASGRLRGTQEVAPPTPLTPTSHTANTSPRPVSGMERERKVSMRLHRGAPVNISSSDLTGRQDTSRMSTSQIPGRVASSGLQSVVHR
UniProt Q08345: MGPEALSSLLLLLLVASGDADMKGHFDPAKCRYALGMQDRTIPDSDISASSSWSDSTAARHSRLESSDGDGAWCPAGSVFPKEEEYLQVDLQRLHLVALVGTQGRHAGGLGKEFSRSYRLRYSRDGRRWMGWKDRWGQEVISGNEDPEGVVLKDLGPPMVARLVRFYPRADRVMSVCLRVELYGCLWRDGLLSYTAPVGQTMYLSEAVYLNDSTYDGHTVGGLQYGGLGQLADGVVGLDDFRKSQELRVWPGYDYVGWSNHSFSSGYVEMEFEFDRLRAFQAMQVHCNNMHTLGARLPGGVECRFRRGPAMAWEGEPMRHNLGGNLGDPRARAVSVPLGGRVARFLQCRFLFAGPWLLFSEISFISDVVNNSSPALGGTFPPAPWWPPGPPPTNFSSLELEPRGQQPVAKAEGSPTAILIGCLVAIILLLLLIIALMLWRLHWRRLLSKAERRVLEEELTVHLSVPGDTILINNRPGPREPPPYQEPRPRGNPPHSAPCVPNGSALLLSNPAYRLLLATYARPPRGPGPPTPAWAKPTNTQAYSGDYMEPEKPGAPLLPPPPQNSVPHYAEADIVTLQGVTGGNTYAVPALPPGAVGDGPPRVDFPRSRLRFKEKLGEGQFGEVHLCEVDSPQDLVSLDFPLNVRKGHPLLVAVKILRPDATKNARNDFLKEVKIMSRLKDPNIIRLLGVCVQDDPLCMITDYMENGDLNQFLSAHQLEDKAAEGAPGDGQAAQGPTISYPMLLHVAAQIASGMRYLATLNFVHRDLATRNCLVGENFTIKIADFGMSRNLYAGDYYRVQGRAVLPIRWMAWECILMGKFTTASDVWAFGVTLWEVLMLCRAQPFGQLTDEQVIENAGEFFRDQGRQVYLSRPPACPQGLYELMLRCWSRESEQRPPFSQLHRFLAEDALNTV
UniProt Q9Y463, whole entry, looked up: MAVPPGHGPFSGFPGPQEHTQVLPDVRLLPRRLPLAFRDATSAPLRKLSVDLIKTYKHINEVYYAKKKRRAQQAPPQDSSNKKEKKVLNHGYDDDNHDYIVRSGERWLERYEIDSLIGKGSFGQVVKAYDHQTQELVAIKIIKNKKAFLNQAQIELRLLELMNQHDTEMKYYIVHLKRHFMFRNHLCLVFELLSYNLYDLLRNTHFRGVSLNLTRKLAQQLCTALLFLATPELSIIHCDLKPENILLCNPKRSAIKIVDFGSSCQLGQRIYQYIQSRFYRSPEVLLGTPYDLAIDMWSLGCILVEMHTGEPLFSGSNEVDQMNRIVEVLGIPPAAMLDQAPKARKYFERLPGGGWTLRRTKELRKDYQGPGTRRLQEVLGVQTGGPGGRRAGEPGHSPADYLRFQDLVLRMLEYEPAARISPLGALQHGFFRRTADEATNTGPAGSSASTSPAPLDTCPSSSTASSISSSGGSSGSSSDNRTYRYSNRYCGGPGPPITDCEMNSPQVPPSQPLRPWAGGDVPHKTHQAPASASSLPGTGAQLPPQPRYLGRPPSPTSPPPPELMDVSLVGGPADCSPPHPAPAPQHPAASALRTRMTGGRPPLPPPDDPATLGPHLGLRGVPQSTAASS
UniProt Q92630: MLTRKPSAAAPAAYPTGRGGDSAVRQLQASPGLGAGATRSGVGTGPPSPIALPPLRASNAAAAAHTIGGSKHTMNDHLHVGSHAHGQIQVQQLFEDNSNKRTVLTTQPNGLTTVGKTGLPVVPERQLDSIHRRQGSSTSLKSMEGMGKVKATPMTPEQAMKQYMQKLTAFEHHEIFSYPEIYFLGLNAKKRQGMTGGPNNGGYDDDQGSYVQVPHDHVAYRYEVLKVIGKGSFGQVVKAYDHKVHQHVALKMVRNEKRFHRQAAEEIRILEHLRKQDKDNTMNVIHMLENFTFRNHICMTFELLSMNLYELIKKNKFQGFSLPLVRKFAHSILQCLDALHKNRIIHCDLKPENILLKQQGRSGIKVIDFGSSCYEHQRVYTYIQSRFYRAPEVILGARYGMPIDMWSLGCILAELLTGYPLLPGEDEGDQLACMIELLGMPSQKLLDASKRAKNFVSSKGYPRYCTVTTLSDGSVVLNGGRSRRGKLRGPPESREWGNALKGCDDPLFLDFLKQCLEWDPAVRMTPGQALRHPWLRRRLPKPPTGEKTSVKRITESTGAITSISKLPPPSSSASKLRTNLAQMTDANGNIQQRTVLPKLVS
UniProt P29317, whole entry: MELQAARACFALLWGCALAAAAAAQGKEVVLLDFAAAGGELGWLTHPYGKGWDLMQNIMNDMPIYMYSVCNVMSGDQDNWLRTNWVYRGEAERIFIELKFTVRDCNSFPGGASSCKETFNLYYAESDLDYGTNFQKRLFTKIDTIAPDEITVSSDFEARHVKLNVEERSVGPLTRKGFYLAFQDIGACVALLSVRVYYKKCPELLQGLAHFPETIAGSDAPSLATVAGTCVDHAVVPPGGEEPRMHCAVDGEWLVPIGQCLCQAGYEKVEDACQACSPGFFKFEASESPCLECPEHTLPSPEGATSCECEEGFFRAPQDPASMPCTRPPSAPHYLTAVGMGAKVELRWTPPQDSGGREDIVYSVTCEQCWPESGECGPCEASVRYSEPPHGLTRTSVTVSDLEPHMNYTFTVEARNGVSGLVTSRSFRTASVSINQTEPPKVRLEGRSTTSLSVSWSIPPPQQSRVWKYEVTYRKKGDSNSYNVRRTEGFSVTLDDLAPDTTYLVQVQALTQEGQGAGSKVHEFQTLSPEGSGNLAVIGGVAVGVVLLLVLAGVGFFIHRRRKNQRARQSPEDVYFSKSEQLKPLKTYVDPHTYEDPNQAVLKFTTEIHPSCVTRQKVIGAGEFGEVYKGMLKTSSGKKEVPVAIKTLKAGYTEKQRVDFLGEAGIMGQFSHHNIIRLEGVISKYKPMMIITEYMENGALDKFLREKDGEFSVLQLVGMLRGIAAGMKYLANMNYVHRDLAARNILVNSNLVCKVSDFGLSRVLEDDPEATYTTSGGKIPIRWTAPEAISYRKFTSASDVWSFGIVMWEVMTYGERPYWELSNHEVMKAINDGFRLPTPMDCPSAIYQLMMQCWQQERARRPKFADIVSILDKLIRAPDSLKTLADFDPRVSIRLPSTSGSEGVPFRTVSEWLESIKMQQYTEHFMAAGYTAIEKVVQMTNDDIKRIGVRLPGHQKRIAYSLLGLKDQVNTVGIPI
UniProt Q15303, whole entry R711C: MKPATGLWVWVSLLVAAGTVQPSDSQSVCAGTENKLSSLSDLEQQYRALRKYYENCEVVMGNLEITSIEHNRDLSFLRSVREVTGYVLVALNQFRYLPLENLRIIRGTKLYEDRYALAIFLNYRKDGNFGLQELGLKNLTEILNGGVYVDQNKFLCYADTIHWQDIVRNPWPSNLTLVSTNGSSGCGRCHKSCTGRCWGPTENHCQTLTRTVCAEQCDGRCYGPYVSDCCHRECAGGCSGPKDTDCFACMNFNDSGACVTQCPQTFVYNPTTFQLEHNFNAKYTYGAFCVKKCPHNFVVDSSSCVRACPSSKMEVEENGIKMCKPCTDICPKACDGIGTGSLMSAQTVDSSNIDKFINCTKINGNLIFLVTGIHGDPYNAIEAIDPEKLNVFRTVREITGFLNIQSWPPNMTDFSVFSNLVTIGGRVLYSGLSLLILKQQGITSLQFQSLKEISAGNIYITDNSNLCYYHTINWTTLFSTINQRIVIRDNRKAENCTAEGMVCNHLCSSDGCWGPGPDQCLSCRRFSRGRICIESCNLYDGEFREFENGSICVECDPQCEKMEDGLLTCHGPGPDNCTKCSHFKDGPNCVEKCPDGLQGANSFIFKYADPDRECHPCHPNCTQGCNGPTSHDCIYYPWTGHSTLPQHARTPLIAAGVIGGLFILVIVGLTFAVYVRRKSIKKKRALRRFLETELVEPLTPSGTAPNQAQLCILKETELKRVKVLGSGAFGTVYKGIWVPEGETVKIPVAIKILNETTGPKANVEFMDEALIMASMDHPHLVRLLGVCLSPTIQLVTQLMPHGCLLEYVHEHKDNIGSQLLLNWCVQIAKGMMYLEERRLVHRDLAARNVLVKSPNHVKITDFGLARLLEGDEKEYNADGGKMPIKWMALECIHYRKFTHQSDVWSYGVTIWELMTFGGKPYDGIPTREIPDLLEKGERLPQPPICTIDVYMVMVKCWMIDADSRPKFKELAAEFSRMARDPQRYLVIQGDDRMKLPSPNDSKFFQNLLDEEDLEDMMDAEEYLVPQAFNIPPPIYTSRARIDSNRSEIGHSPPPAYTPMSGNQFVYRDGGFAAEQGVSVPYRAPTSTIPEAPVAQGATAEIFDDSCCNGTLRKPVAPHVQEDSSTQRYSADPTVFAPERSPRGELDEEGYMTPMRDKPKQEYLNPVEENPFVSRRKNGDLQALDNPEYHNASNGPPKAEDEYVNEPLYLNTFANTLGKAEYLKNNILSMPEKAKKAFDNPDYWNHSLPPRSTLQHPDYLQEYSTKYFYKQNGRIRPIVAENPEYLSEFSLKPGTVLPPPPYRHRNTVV

Tests used:
Assay in all cases: kinase-Nluc reporter destabilization hit call (1 = scored as downregulated) (binary); higher = compound decreases kinase abundance
Details in all cases: K562; 2-18 h
CDK7 = CDK7 (UniProt P50613)
CDK9 = CDK9 (UniProt P50750)
CHEK2 = CHEK2 (UniProt O96017)
CSF1R = CSF1R (UniProt P07333)
CSK = CSK (UniProt P41240)
CSNK1A1 = CSNK1A1 (UniProt P48729)
CSNK1D = CSNK1D (UniProt P48730)
DDR1 = DDR1 (UniProt Q08345)
DYRK1B = DYRK1B (UniProt Q9Y463)
DYRK2 = DYRK2 (UniProt Q92630)
EGFR = EGFR (UniProt P00533)
EGFR_G719S = EGFR_G719S (UniProt P00533)
EGFR_G719S_T790M = EGFR_G719S_T790M (UniProt P00533)
EGFR_L718V = EGFR_L718V (UniProt P00533)
EGFR_L858R = EGFR_L858R (UniProt P00533)
EGFR_L861Q = EGFR_L861Q (UniProt P00533)
EGFR_T790M = EGFR_T790M (UniProt P00533)
EPHA2 = EPHA2 (UniProt P29317)
ERBB3 = ERBB3 (UniProt P21860)
[1] = molecular target: ERBB4_R711C (clone: ERBB4_mut) (UniProt Q15303)

Measured: kinase-Nluc reporter destabilization hit call

CN1CCC(Nc2ccc(C(=O)Nc3cc(-c4ccc5c(c4)OCO5)[nH]n3)cc2)CC1 (10 µM)
inactive: CDK7 = 0 | CDK9 = 0 | CHEK2 = 0 | CSF1R 0 | CSK 0 | CSNK1A1 = 0 | CSNK1D 0 | DDR1 = 0 | DYRK1B 0 | DYRK2 = 0 | EGFR 0 | EGFR_G719S 0 | EGFR_G719S_T790M 0 | EGFR_L718V 0 | EGFR_L858R 0 | EGFR_L861Q 0 | EGFR_T790M 0 | EPHA2 = 0 | ERBB3 = 0 | [1] 0

Nc1ccc(-c2cccc(C(=O)Nc3cnc4nc(N5CCOCC5)oc4c3)n2)cn1 (10 µM)
active: EPHA2 = 1
inactive: CDK7 = 0 | CDK9 = 0 | CHEK2 = 0 | CSF1R 0 | CSK 0 | CSNK1A1 = 0 | CSNK1D 0 | DDR1 = 0 | DYRK1B 0 | DYRK2 = 0 | EGFR 0 | EGFR_G719S 0 | EGFR_G719S_T790M 0 | EGFR_L718V 0 | EGFR_L858R 0 | EGFR_L861Q 0 | EGFR_T790M 0 | ERBB3 = 0 | [1] 0

O=C(C#Cc1ccccc1)c1cccc([N+](=O)[O-])c1 (10 µM)
inactive: CDK7 = 0 | CDK9 = 0 | CHEK2 = 0 | CSF1R 0 | CSK 0 | CSNK1A1 = 0 | CSNK1D 0 | DDR1 = 0 | DYRK1B 0 | DYRK2 = 0 | EGFR 0 | EGFR_G719S 0 | EGFR_G719S_T790M 0 | EGFR_L718V 0 | EGFR_L858R 0 | EGFR_L861Q 0 | EGFR_T790M 0 | EPHA2 = 0 | ERBB3 = 0 | [1] 0

CC/C(=C(\c1ccccc1)c1ccc(OCCNC)cc1)c1ccccc1 [N-Desmethyltamoxifen (hydrochloride)] (2.5 µM)
inactive: CDK7 = 0 | CDK9 = 0 | CHEK2 = 0 | CSF1R 0 | CSK 0 | CSNK1A1 = 0 | CSNK1D 0 | DDR1 = 0 | DYRK1B 0 | DYRK2 = 0 | EGFR 0 | EGFR_G719S 0 | EGFR_G719S_T790M 0 | EGFR_L718V 0 | EGFR_L858R 0 | EGFR_L861Q 0 | EGFR_T790M 0 | EPHA2 = 0 | ERBB3 = 0 | [1] 0

CC(C)=CCC[C@](C)(O[C@@H]1O[C@H](CO[C@@H]2O[C@H](CO)[C@@H](O)[C@H](O)[C@H]2O)[C@@H](O)[C@H](O)[C@H]1O)[C@H]1CC[C@]2(C)[C@@H]1[C@H](O)C[C@@H]1[C@@]3(C)CC[C@H](O[C@@H]4O[C@H](CO)[C@@H](O)[C@H](O)[C@H]4O[C@@H]4O[C@H](CO)[C@@H](O)[C@H](O)[C@H]4O)C(C)(C)[C@@H]3CC[C@]12C [Ginsenoside Rb1] (10 µM)
inactive: CDK7 = 0 | CDK9 = 0 | CHEK2 = 0 | CSF1R 0 | CSK 0 | CSNK1A1 = 0 | CSNK1D 0 | DDR1 = 0 | DYRK1B 0 | DYRK2 = 0 | EGFR 0 | EGFR_G719S 0 | EGFR_G719S_T790M 0 | EGFR_L718V 0 | EGFR_L858R 0 | EGFR_L861Q 0 | EGFR_T790M 0 | EPHA2 = 0 | ERBB3 = 0 | [1] 0
